PubChem BioAssay AID1224826 – NIAID – 2016

- Assay: 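Regulators of Tlr4 signalling leading to Tnf-alpha expression in macrophages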 (primary screen)
- Cells: RAW264.7 G9 macrophages from mouse bearing reporters for p65 (GFP) and the Tnf promoter (mCherry)
- Reagent: siRNA pool against mouse genes, 100 nM
- Timing: 16 h of LPS stimulation, after 2 days of siRNA transfection
- Challenge: bacterial lipopolysaccharide (Salmonella minnesota R595), 10 ng/ml
- Read-out: 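Nuclear mCherry signal of the Tnf promoter reporter measured by imaging after background removal, scaled to each plate median and turned into robust z-scores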
- Reading the numbers: Tnf reporter robust z-score: higher = stronger Tnf promoter reporter signal after LPS; Tnf reporter intensity: higher = stronger Tnf promoter reporter signal
- Hit rule: 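Called active when robust z-score is at most -1.3, matching the median of the Tlr4 knock-down control, or over 3; control wells and wells with under 50 cells never active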
- Calls: active = Tnf reporter clearly lowered or raised; inactive = no clear change in Tnf reporter
The whole screen tested about 17,000 reagents; shown is an unselected part. In the full data, about 1,110 (6.6%) were called active. 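Active means lowered or raised reporter signal; replicate intensities are raw and not normalised per plate.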 The numbers tell different reagents against one gene apart. A reagent listed more than once was tested more than once; the source does not tell the runs apart.

| Target gene | reagent no. | Tnf reporter robust z-score | fewer than 50 cells in well | Tnf reporter intensity, replicate 1 | Tnf reporter intensity, replicate 2 | outcome |
| --- | --- | --- | --- | --- | --- | --- |
| Ncapd3 | 1 | 1.06 | enough cells in well | 221 | 233 | inactive |
| 4930579K19Rik | 1 | 0.45 | enough cells in well | 238 | 89.2 | inactive |
| Phf24 | 1 | -1.94 | enough cells in well | 80.7 | 32.8 | active |
| Or4k15 | 1 | 2.8 | enough cells in well | 96.1 | 232 | inactive |
| Cep135 | 1 | 0.94 | enough cells in well | 173 | 174 | inactive |
| Tram1 | 1 | 1.04 | enough cells in well | 344 | 270 | inactive |
| Crot | 1 | -0.37 | enough cells in well | 237 | 146 | inactive |
| Ftsj3 | 1 | 1.42 | enough cells in well | 416 | 169 | inactive |
| Zfyve16 | 1 | 0.65 | enough cells in well | 152 | 152 | inactive |
| Rin1 | 1 | -0.16 | enough cells in well | 327 | 171 | inactive |
| Rab3c | 1 | 0.23 | enough cells in well | 136 | 143 | inactive |
| Tas2r118 | 1 | -0.26 | enough cells in well | 278 | 88.5 | inactive |
| Or4d10c | 1 | 2.41 | enough cells in well | 301 | 237 | inactive |
| Mybpc3 | 1 | 0.03 | enough cells in well | 279 | 197 | inactive |
| Hyal5 | 1 | -0.48 | enough cells in well | 133 | 132 | inactive |
| C030006K11Rik | 1 | 2.02 | enough cells in well | 206 | 247 | inactive |
| Nfkbiz | 1 | -0.68 | enough cells in well | 101 | 152 | inactive |
| Cdh15 | 1 | 0.37 | enough cells in well | 269 | 242 | inactive |
| Fh1 | 1 | 0.72 | enough cells in well | 361 | 255 | inactive |
| Gpr37 | 1 | 1.03 | enough cells in well | 236 | 492 | inactive |
| Hsd11b1 | 1 | 1.31 | enough cells in well | 328 | 284 | inactive |
| Stk36 | 1 | -0.56 | enough cells in well | 167 | 121 | inactive |
| Stk36 | 1 | – | fewer than 50 cells per well; well left out of calls | 149 | 44.3 | inactive |
| Nlrp9a | 1 | -0.25 | enough cells in well | 234 | 194 | inactive |
| Tcirg1 | 1 | -0.69 | enough cells in well | 203 | 87.7 | inactive |
| D330050P16RIK | 1 | -0.72 | enough cells in well | 177 | 94.2 | inactive |
| Slc16a11 | 1 | -1.1 | enough cells in well | 61.5 | 65.8 | inactive |
| Slc6a9 | 1 | – | fewer than 50 cells per well; well left out of calls | 92.6 | 60.7 | inactive |
| Naprt | 1 | -0.2 | enough cells in well | 175 | 168 | inactive |
| Eloc | 1 | -1.33 | enough cells in well | 153 | 58.3 | active |
| Smarca1 | 1 | 0.04 | enough cells in well | 310 | 195 | inactive |
| Dpagt1 | 1 | 0.65 | enough cells in well | 229 | 84.2 | inactive |
| Mrpl45 | 1 | -0.51 | enough cells in well | 123 | 124 | inactive |
| Cdon | 1 | 0.82 | enough cells in well | 309 | 270 | inactive |
| Spr | 1 | 0.12 | enough cells in well | 293 | 222 | inactive |
| Gopc | 1 | 0.13 | enough cells in well | 237 | 207 | inactive |
| Eno3 | 1 | 1.91 | enough cells in well | 336 | 423 | inactive |
| Khdc4 | 1 | 0.33 | enough cells in well | 250 | 86.6 | inactive |
| Zbtb33 | 1 | -0.9 | enough cells in well | 143 | 181 | inactive |
| Sigmar1 | 1 | -0.39 | enough cells in well | 212 | 156 | inactive |
| Zcchc7 | 1 | 0.96 | enough cells in well | 265 | 237 | inactive |
| Zcchc7 | 2 | -0.71 | enough cells in well | 159 | 35 | inactive |
| Or8c13 | 1 | 1.75 | enough cells in well | 131 | 219 | inactive |
| Ces2c | 1 | 0.97 | enough cells in well | 225 | 225 | inactive |
| Hapln3 | 1 | 1.87 | enough cells in well | 442 | 240 | inactive |

Entries listed above marked active, once more:
| Target gene | reagent no. | Tnf reporter robust z-score | fewer than 50 cells in well | Tnf reporter intensity, replicate 1 | Tnf reporter intensity, replicate 2 | outcome |
| --- | --- | --- | --- | --- | --- | --- |
| Phf24 | 1 | -1.94 | enough cells in well | 80.7 | 32.8 | active |
| Eloc | 1 | -1.33 | enough cells in well | 153 | 58.3 | active |

Further results follow:
| Target gene | reagent no. | Tnf reporter robust z-score | fewer than 50 cells in well | Tnf reporter intensity, replicate 1 | Tnf reporter intensity, replicate 2 | outcome |
| --- | --- | --- | --- | --- | --- | --- |
| Lyn | 1 | -1.26 | enough cells in well | 203 | 91.4 | inactive |
| Ccdc28a | 1 | -0.05 | enough cells in well | 216 | 80 | inactive |
| Atp13a2 | 1 | -0.18 | enough cells in well | 113 | 189 | inactive |
| Igf1 | 1 | -0.88 | enough cells in well | 183 | 119 | inactive |
| Fam221a | 1 | 1.81 | enough cells in well | 362 | 212 | inactive |
| Trerf1 | 1 | -0.59 | enough cells in well | 175 | 196 | inactive |
| Axin2 | 1 | 0.13 | enough cells in well | 134 | 193 | inactive |
| Mvd | 1 | -1.3 | enough cells in well | 111 | 89.3 | active |
| Lefty1 | 1 | -0.66 | enough cells in well | 143 | 106 | inactive |
| Epha2 | 1 | 0.2 | enough cells in well | 212 | 166 | inactive |
| D930030O05Rik | 1 | 0.72 | enough cells in well | 218 | 213 | inactive |
| Wnt1 | 1 | -0.13 | enough cells in well | 257 | 212 | inactive |
| Klhl8 | 1 | -0.12 | enough cells in well | 202 | 114 | inactive |
| Tube1 | 1 | -0.15 | enough cells in well | 207 | 231 | inactive |
| Gga1 | 1 | -0.97 | enough cells in well | 158 | 97.3 | inactive |
| Gipc3 | 1 | 1 | enough cells in well | 139 | 203 | inactive |
| Ptn | 1 | -0.58 | enough cells in well | 167 | 181 | inactive |
| Chchd5 | 1 | -0.1 | enough cells in well | 273 | 35.8 | inactive |
| Tars2 | 1 | -0.43 | enough cells in well | 192 | 67.1 | inactive |
| Tmem126a | 1 | – | fewer than 50 cells per well; well left out of calls | 170 | 41.6 | inactive |
| Mmaa | 1 | -0.51 | enough cells in well | 200 | 185 | inactive |
| Iffo2 | 1 | 1.27 | enough cells in well | 183 | 323 | inactive |
| Ywhag | 1 | -0.3 | enough cells in well | 197 | 219 | inactive |
| Tle1 | 1 | -0.89 | enough cells in well | 163 | 93.6 | inactive |
| Xbp1 | 1 | 0.05 | enough cells in well | 216 | 253 | inactive |
| Ppp3cc | 1 | 0.2 | enough cells in well | 249 | 218 | inactive |
| Irs1 | 1 | -0.38 | enough cells in well | 166 | 146 | inactive |
| Psenen | 1 | 1.17 | enough cells in well | 239 | 142 | inactive |
| Pex11g | 1 | 0.27 | enough cells in well | 154 | 152 | inactive |
| Ncan | 1 | -0.47 | enough cells in well | 172 | 131 | inactive |
